Results reported in the supplement of paper PMC10849652.
The other results are listed elsewhere or left out.

The chains behind the UniProt entries cited, without tags or fusion partners. Where a name states a change or a piece, a line headed by the entry shows the natural chain unless it says otherwise.
UniProt Q99816: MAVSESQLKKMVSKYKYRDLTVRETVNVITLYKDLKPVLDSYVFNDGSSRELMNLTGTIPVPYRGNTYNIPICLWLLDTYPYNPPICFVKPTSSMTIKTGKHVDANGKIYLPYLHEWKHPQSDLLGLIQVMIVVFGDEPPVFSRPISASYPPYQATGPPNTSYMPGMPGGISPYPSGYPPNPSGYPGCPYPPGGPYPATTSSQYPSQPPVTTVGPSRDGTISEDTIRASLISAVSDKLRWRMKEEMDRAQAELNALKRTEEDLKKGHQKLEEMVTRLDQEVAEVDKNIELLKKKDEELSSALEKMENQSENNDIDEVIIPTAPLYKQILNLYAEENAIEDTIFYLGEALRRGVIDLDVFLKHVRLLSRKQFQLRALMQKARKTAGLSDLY
UniProt Q96F44: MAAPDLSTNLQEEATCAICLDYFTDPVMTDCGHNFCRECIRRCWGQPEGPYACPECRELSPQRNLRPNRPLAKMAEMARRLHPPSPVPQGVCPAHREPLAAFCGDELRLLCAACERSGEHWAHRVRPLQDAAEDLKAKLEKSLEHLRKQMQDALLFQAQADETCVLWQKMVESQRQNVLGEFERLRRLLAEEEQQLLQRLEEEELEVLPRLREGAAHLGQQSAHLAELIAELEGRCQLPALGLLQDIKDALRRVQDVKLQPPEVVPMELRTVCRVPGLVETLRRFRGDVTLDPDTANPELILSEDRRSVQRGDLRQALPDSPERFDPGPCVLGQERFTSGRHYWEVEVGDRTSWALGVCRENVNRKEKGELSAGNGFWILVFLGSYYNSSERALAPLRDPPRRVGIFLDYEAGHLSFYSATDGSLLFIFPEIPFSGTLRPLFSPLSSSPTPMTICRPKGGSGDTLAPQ
UniProt Q15643: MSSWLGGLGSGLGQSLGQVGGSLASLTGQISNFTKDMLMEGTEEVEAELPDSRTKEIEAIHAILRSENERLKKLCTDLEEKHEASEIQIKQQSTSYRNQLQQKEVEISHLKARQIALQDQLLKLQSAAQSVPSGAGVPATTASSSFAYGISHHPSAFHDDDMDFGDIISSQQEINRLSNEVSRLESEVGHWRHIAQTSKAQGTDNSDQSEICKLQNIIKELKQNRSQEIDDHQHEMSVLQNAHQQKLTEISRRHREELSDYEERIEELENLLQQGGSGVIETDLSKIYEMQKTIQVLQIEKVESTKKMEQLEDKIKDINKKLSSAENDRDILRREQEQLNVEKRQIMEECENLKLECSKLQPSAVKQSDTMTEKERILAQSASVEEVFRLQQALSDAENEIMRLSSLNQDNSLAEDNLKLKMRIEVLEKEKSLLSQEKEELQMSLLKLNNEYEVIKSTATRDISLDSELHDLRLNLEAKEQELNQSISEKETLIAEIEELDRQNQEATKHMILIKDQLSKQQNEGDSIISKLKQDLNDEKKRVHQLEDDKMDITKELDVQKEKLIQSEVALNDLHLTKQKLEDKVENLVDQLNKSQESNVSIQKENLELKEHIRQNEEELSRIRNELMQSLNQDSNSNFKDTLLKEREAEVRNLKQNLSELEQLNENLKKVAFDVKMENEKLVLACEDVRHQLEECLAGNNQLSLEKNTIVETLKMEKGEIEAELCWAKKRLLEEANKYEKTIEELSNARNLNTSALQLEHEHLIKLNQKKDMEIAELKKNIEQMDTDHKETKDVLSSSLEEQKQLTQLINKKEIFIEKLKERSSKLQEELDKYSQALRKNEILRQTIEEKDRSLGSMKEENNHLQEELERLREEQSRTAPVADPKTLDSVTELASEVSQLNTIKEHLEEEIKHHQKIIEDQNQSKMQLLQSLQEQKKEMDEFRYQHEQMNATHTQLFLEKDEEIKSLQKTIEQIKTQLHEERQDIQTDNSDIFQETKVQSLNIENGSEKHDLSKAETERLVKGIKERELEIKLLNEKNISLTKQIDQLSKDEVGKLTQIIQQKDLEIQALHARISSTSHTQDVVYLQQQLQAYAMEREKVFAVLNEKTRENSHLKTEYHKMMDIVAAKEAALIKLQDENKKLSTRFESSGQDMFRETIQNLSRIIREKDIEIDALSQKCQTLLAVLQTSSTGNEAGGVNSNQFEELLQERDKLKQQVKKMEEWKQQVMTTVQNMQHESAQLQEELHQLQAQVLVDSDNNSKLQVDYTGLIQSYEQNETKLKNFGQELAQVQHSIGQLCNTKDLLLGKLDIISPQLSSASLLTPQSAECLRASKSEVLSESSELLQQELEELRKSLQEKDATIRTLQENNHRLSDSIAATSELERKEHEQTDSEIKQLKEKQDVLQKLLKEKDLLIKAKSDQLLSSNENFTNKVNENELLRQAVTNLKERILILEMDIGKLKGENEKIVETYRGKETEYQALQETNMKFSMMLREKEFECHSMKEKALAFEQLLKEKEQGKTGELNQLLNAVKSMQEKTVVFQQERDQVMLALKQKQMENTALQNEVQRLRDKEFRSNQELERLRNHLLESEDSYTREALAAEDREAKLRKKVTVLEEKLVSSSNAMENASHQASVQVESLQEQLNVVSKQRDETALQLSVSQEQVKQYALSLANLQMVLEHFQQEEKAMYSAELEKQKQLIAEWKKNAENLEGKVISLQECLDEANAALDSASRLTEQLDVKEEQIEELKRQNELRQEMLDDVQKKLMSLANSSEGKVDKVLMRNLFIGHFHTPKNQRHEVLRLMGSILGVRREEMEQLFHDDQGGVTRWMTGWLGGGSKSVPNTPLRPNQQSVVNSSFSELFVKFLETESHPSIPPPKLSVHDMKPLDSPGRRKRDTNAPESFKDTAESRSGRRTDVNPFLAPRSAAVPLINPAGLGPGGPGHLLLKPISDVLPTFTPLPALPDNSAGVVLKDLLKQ
UniProt Q8WWH5: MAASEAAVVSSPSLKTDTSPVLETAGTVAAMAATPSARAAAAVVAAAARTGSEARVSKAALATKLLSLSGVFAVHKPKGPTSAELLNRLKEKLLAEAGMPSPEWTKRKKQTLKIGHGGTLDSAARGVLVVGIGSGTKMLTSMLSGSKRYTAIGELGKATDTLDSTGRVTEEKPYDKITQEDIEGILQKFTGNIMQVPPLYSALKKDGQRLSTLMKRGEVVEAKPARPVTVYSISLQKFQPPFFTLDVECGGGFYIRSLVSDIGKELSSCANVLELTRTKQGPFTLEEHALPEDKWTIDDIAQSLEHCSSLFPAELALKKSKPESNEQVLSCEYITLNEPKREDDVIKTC
UniProt Q8WW01: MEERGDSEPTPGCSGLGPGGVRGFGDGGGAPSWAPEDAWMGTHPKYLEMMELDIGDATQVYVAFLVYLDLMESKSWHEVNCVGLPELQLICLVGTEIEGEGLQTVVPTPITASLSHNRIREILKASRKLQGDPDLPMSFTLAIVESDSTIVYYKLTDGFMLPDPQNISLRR
UniProt Q96FX7: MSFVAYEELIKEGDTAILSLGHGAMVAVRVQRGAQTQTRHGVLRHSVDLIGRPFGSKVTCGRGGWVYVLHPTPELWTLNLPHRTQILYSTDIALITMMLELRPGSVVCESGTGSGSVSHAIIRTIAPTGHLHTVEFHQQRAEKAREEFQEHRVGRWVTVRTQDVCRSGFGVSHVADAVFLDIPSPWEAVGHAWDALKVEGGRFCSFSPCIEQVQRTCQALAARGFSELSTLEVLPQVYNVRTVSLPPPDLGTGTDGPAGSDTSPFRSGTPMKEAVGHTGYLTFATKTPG
UniProt P49815: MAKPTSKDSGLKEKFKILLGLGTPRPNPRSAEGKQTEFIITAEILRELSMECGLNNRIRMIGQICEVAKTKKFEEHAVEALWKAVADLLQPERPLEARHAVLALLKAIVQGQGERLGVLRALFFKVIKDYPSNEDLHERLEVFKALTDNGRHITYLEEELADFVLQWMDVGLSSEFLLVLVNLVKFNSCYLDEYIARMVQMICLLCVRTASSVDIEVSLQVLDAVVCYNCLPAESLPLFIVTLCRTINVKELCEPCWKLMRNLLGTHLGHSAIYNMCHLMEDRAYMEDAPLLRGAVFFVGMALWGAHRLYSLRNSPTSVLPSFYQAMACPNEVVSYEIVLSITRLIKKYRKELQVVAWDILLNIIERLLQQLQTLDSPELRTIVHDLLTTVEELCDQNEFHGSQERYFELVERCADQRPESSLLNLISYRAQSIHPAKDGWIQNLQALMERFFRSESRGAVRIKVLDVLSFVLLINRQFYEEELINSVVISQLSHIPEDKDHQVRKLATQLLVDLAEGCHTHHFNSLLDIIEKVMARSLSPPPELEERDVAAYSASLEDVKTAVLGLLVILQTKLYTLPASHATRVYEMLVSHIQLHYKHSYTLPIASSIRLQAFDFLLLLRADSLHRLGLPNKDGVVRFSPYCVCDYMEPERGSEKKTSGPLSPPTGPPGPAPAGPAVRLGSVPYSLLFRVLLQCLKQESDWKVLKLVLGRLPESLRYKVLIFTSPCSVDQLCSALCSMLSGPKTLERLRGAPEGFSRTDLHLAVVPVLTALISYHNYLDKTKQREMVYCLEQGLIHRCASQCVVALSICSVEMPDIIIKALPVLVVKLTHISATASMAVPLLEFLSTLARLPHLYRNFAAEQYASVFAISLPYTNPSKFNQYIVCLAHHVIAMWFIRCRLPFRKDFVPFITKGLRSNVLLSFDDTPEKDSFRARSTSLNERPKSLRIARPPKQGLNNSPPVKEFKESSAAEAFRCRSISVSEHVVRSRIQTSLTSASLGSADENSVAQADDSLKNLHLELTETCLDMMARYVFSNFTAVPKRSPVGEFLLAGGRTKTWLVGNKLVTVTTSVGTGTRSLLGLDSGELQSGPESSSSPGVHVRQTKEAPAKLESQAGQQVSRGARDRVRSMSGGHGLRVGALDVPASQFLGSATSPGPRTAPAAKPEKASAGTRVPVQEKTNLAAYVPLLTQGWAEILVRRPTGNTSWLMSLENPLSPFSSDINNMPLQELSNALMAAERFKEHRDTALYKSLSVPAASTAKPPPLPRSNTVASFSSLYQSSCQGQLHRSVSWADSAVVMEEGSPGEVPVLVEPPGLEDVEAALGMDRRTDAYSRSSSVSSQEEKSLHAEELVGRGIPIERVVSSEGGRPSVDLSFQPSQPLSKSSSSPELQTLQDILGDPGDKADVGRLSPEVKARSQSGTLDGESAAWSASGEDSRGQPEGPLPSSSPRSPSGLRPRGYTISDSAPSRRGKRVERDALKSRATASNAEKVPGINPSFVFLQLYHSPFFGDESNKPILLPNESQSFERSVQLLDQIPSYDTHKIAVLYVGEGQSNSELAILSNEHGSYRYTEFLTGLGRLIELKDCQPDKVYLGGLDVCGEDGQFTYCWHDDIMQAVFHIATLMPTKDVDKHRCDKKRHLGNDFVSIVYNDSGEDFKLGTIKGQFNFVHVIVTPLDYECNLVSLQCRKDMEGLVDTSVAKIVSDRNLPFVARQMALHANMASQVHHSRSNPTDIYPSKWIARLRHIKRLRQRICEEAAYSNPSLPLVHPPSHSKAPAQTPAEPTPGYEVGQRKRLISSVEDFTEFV
UniProt Q969E8: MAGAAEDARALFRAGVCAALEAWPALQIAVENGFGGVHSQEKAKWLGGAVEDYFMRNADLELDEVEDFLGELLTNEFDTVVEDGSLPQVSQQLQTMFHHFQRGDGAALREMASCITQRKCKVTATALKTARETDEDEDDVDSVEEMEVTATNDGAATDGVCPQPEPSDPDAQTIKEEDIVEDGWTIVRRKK
UniProt Q96Q11: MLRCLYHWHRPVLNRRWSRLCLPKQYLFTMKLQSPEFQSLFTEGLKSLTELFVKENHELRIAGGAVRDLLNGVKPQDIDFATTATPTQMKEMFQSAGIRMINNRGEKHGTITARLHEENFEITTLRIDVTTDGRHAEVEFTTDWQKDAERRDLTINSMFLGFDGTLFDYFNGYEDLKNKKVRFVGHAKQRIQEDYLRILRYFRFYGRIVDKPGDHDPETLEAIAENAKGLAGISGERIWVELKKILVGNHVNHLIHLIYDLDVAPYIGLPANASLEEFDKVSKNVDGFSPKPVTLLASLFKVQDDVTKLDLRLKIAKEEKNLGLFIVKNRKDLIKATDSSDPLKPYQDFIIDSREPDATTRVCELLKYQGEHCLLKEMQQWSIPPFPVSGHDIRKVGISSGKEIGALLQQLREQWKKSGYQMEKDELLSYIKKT
UniProt Q8N0Z6: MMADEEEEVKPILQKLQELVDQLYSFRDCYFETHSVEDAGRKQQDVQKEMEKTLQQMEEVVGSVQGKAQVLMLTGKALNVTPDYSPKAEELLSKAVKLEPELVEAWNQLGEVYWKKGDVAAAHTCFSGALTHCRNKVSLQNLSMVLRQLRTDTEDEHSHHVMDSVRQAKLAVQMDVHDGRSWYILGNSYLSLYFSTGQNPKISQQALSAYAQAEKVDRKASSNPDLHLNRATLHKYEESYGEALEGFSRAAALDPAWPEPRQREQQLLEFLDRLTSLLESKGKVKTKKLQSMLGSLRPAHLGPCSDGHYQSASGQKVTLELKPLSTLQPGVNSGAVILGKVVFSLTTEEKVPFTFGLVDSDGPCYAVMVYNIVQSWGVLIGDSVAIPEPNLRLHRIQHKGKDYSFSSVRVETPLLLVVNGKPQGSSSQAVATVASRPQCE

Assays:
Assay in all cases: log2 fold change, soluble protein after heating vs DMSO (PISA); higher = thermal stabilisation; K562 lysate, 10 uM; active = over 0.2 and 3.5 SD of the protein, either way, in both replicates (recomputed)
alvocidib = compound: CN1CC[C@H](c2c(O)cc(O)c3c(=O)cc(-c4ccccc4Cl)oc23)[C@H](O)C1 [alvocidib]
How it was run: (§1)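 Following dounce homogenisation of K562 pellets in PBS pH 7.4 with 1 mM MgCl2, crude extract at 1 mg/mL protein was incubated for 30 min with 10 μM compound. Aliquots were then heated for 3 min over 48°C-58°C and pooled, NP-40 was added to 0.5% at 4°C, and soluble protein was recovered as the supernatant at 21,000xg for 90 min. Channel-sum-equalised TMTpro 16plex LC-MS/MS quantified this protein. Each value, from duplicates, is a log-two fold change in thermal stability relative to solvent controls.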

Tubastatin A = compound: CN1CCc2c(c3ccccc3n2Cc2ccc(C(=O)NO)cc2)C1 [Tubastatin A]
How it was run: as §1

[1] = compound: CNC(=O)C1=CC=CC=C1NC2=NC(=NC=C2Cl)NC3=C(C=C(C=C3)N4CCOCC4)OC
How it was run: as §1

defactinib = compound: CNC(=O)c1ccc(Nc2ncc(C(F)(F)F)c(NCc3nccnc3N(C)S(C)(=O)=O)n2)cc1 [defactinib]
How it was run: as §1

[2] = compound: CNc1nc(-c2ccc3c(N)n[nH]c3c2)cc(N2C[C@@H](C(=O)NC3CCCCC3)CC[C@H]2C)n1
How it was run: as §1

encorafenib = compound: COC(=O)N[C@@H](C)CNc1nccc(-c2cn(C(C)C)nc2-c2cc(Cl)cc(NS(C)(=O)=O)c2F)n1 [encorafenib]
How it was run: as §1

[3] = compound: COC(=O)[C@H](CCSC)NC(=O)C1=C(C=C(C=C1)NC[C@H](CS)N)C2=CC=CC=C2
How it was run: as §1

alisertib = compound: COc1cc(Nc2ncc3c(n2)-c2ccc(Cl)cc2C(c2c(F)cccc2OC)=NC3)ccc1C(=O)O [alisertib]
How it was run: as §1

[4] = compound: COc1cc2nc(-c3cc(F)ccc3O)nc(N[C@@H]3CNC[C@H]3C(C)(C)O)c2cc1OC
How it was run: as §1

gefitinib = compound: COc1cc2ncnc(Nc3ccc(F)c(Cl)c3)c2cc1OCCCN1CCOCC1 [gefitinib]
How it was run: as §1

lapatinib = compound: CS(=O)(=O)CCNCc1ccc(-c2ccc3ncnc(Nc4ccc(OCc5cccc(F)c5)c(Cl)c4)c3c2)o1 [lapatinib]
How it was run: as §1

pictilisib = compound: CS(=O)(=O)N1CCN(Cc2cc3nc(-c4cccc5[nH]ncc45)nc(N4CCOCC4)c3s2)CC1 [pictilisib]
How it was run: as §1

crizotinib = compound: C[C@@H](Oc1cc(-c2cnn(C3CCNCC3)c2)cnc1N)c1c(Cl)ccc(F)c1Cl [crizotinib]
How it was run: as §1

[5] = compound: C[C@H](C1=CC=C(C=C1)C(=O)NC2=C3C=CNC3=NC=C2)N
How it was run: as §1

duvelisib = compound: C[C@H](Nc1ncnc2nc[nH]c12)c1cc2cccc(Cl)c2c(=O)n1-c1ccccc1 [duvelisib]
How it was run: as §1

gandotinib = compound: Cc1cc(Nc2cc(CN3CCOCC3)c3nc(C)c(Cc4ccc(Cl)cc4F)n3n2)n[nH]1 [gandotinib]
How it was run: as §1

tozasertib = compound: Cc1cc(Nc2cc(N3CCN(C)CC3)nc(Sc3ccc(NC(=O)C4CC4)cc3)n2)n[nH]1 [tozasertib]
How it was run: as §1

doramapimod = compound: Cc1ccc(-n2nc(C(C)(C)C)cc2NC(=O)Nc2ccc(OCCN3CCOCC3)c3ccccc23)cc1 [doramapimod]
How it was run: as §1

bafetinib = compound: Cc1ccc(NC(=O)c2ccc(CN3CC[C@H](N(C)C)C3)c(C(F)(F)F)c2)cc1Nc1nccc(-c2cncnc2)n1 [bafetinib]
How it was run: as §1

[6] = compound: Cc1cccc(CC(=O)N2CCc3c2ccc(-c2cn(C)c4ncnc(N)c24)c3F)n1
How it was run: as §1

Measured: log2 fold change

TSG101 (UniProt Q99816)
inactive: alvocidib -0.077 | Tubastatin A -0.02 | [1] -0.011 | defactinib -0.023 | [2] -0.056 | encorafenib 0.012 | [3] -0.071 | alisertib -0.013 | [4] 0.017 | gefitinib -0.003 | lapatinib 0.003 | pictilisib -0.011 | crizotinib 0.021 | [5] -0.195 | duvelisib -0.032 | gandotinib 0.068 | tozasertib 0.002 | doramapimod 0.007 | bafetinib -0.019 | [6] 0.115

TRIM11 (UniProt Q96F44)
inactive: alvocidib -0.015 | Tubastatin A -0.021 | [1] 0.037 | defactinib 0.016 | [2] -0.007 | encorafenib 0.029 | [3] 0.053 | alisertib -0.026 | [4] -0.055 | gefitinib 0.004 | lapatinib 0.013 | pictilisib -0.006 | crizotinib -0.029 | [5] -0.006 | duvelisib -0.016 | gandotinib -0.03 | tozasertib -0.006 | doramapimod 0.015 | bafetinib 0.029 | [6] -0.003

TRIP11 (UniProt Q15643)
inactive: alvocidib -0.074 | Tubastatin A 0.017 | [1] 0.048 | defactinib 0.025 | [2] 0.005 | encorafenib 0.103 | [3] -0.087 | alisertib 0.034 | [4] -0.017 | gefitinib -0.014 | lapatinib -0.003 | pictilisib 0.086 | crizotinib -0.008 | [5] -0.052 | duvelisib -0.017 | gandotinib 0.083 | tozasertib -0.037 | doramapimod 0.059 | bafetinib -0.088 | [6] 0.109

TRUB1 (UniProt Q8WWH5)
inactive: alvocidib 0.018 | Tubastatin A -0.012 | [1] 0.037 | defactinib -0.017 | [2] 0.002 | encorafenib -0.015 | [3] 0.08 | alisertib 0.02 | [4] -0.103 | gefitinib -0.063 | lapatinib -0.117 | pictilisib -0.015 | crizotinib -0.029 | [5] -0.089 | duvelisib 0.018 | gandotinib 0.043 | tozasertib 0.005 | doramapimod 0.049 | bafetinib -0.046 | [6] 0.039

TSEN15 (UniProt Q8WW01)
inactive: alvocidib 0.065 | Tubastatin A 0.08 | [1] 0.002 | defactinib 0.032 | [2] 0.015 | encorafenib 0.088 | [3] 0.014 | alisertib 0.051 | [4] -0.011 | gefitinib -0.095 | lapatinib 0.044 | pictilisib -0.042 | crizotinib -0.024 | [5] 0.058 | duvelisib -0.009 | gandotinib 0.01 | tozasertib 0.037 | doramapimod 0.012 | bafetinib -0.104 | [6] -0.034

TRMT61A (UniProt Q96FX7)
inactive: alvocidib 0.03 | Tubastatin A 0.075 | [1] 0.022 | defactinib 0.032 | [2] -0.036 | encorafenib -0.022 | [3] 0.057 | alisertib -0.02 | [4] -0.06 | gefitinib -0.085 | lapatinib 0.071 | pictilisib 0.002 | crizotinib 0.048 | [5] 0.038 | duvelisib -0.053 | gandotinib 0.003 | tozasertib -0.049 | doramapimod -0.052 | bafetinib 0.133 | [6] -0.106

TSC1 (UniProt Q92574)
inactive: alvocidib -0.034 | Tubastatin A -0.072 | [1] 0.043 | defactinib 0.046 | [2] 0.177 | encorafenib 0.025 | [3] -0.018 | alisertib 0.005 | [4] -0.04 | gefitinib -0.037 | lapatinib -0.032 | pictilisib 0.049 | crizotinib -0.036 | [5] -0.049 | duvelisib -0.002 | gandotinib -0.065 | tozasertib 0.112 | doramapimod 0.003 | bafetinib -0.062 | [6] 0.119

Quoted from the listing (two entries):
TRIP11 (UniProt Q15643)
inactive: alvocidib -0.074 | Tubastatin A 0.017 | [1] 0.048 | defactinib 0.025 | [2] 0.005 | encorafenib 0.103 | [3] -0.087 | alisertib 0.034 | [4] -0.017 | gefitinib -0.014 | lapatinib -0.003 | pictilisib 0.086 | crizotinib -0.008 | [5] -0.052 | duvelisib -0.017 | gandotinib 0.083 | tozasertib -0.037 | doramapimod 0.059 | bafetinib -0.088 | [6] 0.109

TRUB1 (UniProt Q8WWH5)
inactive: alvocidib 0.018 | Tubastatin A -0.012 | [1] 0.037 | defactinib -0.017 | [2] 0.002 | encorafenib -0.015 | [3] 0.08 | alisertib 0.02 | [4] -0.103 | gefitinib -0.063 | lapatinib -0.117 | pictilisib -0.015 | crizotinib -0.029 | [5] -0.089 | duvelisib 0.018 | gandotinib 0.043 | tozasertib 0.005 | doramapimod 0.049 | bafetinib -0.046 | [6] 0.039

Continued.

TSC2 isoform 4 (UniProt P49815)
inactive: alvocidib -0.016 | Tubastatin A -0.082 | [1] -0.007 | defactinib 0.007 | [2] 0.064 | encorafenib 0.028 | [3] -0.063 | alisertib -0.087 | [4] 0.042 | gefitinib -0.019 | lapatinib -0.011 | pictilisib 0.025 | crizotinib -0.054 | [5] -0.058 | duvelisib 0.026 | gandotinib -0.035 | tozasertib 0.049 | doramapimod -0.061 | bafetinib -0.008 | [6] 0.089

TRMT1L (UniProt Q7Z2T5)
inactive: alvocidib -0.041 | Tubastatin A -0.082 | [1] -0.003 | defactinib 0.04 | [2] -0.035 | encorafenib 0.039 | [3] 0.013 | alisertib -0.042 | [4] 0.002 | gefitinib -0.035 | lapatinib -0.003 | pictilisib 0.021 | crizotinib -0.046 | [5] -0.053 | duvelisib 0.03 | gandotinib 0 | tozasertib -0.017 | doramapimod 0.006 | bafetinib 0.016 | [6] 0.08

TRIM33 isoform 2 (UniProt Q9UPN9)
inactive: alvocidib -0.029 | Tubastatin A -0.131 | [1] 0.016 | defactinib -0.001 | [2] -0.006 | encorafenib 0.006 | [3] 0.052 | alisertib -0.003 | [4] 0.046 | gefitinib 0.005 | lapatinib -0.034 | pictilisib 0.008 | crizotinib -0.015 | [5] -0.07 | duvelisib -0.002 | gandotinib -0.023 | tozasertib 0.011 | doramapimod 0.021 | bafetinib -0.038 | [6] 0.056

TSR2 (UniProt Q969E8)
inactive: alvocidib 0.054 | Tubastatin A 0.012 | [1] 0.004 | defactinib 0.035 | [2] 0.054 | encorafenib 0.025 | [3] -0.01 | alisertib 0.035 | [4] -0.011 | gefitinib -0.037 | lapatinib -0.002 | pictilisib 0.009 | crizotinib 0.018 | [5] 0.006 | duvelisib -0.013 | gandotinib -0.02 | tozasertib -0.027 | doramapimod 0.004 | bafetinib -0.005 | [6] 0.01

TRNT1 (UniProt Q96Q11)
inactive: alvocidib 0.023 | Tubastatin A -0.019 | [1] 0.003 | defactinib 0.03 | [2] -0.049 | encorafenib 0.016 | [3] -0.039 | alisertib -0.02 | [4] 0.001 | gefitinib -0.008 | lapatinib 0.01 | pictilisib -0.021 | crizotinib -0.036 | [5] 0.043 | duvelisib 0.011 | gandotinib -0.075 | tozasertib 0.025 | doramapimod 0.032 | bafetinib 0.016 | [6] -0.03

TRMT61B (UniProt Q9BVS5)
inactive: alvocidib 0.019 | Tubastatin A 0.009 | [1] 0.024 | defactinib 0.02 | [2] 0.05 | encorafenib 0.009 | [3] 0 | alisertib 0.005 | [4] 0.008 | gefitinib -0.043 | lapatinib 0.02 | pictilisib -0.008 | crizotinib 0.004 | [5] -0.047 | duvelisib -0.039 | gandotinib 0.075 | tozasertib -0.036 | doramapimod -0.019 | bafetinib 0.002 | [6] 0.015

TTC5 (UniProt Q8N0Z6)
inactive: alvocidib -0.006 | Tubastatin A -0.092 | [1] -0.017 | defactinib -0.017 | [2] -0.02 | encorafenib -0.021 | [3] 0.057 | alisertib -0.036 | [4] -0.01 | gefitinib 0.091 | lapatinib 0.039 | pictilisib -0.021 | crizotinib -0.053 | [5] -0.064 | duvelisib 0.032 | gandotinib -0.048 | tozasertib 0.076 | doramapimod 0.007 | bafetinib -0.052 | [6] 0.04

TRIM38 (UniProt O00635)
inactive: alvocidib 0.013 | Tubastatin A -0.167 | [1] 0.056 | defactinib -0.026 | [2] -0.029 | encorafenib 0.074 | [3] 0.071 | alisertib -0.107 | [4] 0.019 | gefitinib 0.008 | lapatinib 0.04 | pictilisib 0.01 | crizotinib -0.049 | [5] -0.066 | duvelisib -0.077 | gandotinib -0.027 | tozasertib -0.105 | doramapimod 0.034 | bafetinib -0.04 | [6] 0.06
